Results: paper PMC11994759
No constants are given. Whether binding was seen depends on the method and setting. Binding seen in cells or lysates may run through a third protein. Some results given as binding are weak or reduced against the parent protein; the word gives no strength. For part of these data: Where a sequence is shown, tags or fusion partners need not be part of it.

By UniProt entry, the sequences of proteins in these tests, tags left out.
UniProt Q15149: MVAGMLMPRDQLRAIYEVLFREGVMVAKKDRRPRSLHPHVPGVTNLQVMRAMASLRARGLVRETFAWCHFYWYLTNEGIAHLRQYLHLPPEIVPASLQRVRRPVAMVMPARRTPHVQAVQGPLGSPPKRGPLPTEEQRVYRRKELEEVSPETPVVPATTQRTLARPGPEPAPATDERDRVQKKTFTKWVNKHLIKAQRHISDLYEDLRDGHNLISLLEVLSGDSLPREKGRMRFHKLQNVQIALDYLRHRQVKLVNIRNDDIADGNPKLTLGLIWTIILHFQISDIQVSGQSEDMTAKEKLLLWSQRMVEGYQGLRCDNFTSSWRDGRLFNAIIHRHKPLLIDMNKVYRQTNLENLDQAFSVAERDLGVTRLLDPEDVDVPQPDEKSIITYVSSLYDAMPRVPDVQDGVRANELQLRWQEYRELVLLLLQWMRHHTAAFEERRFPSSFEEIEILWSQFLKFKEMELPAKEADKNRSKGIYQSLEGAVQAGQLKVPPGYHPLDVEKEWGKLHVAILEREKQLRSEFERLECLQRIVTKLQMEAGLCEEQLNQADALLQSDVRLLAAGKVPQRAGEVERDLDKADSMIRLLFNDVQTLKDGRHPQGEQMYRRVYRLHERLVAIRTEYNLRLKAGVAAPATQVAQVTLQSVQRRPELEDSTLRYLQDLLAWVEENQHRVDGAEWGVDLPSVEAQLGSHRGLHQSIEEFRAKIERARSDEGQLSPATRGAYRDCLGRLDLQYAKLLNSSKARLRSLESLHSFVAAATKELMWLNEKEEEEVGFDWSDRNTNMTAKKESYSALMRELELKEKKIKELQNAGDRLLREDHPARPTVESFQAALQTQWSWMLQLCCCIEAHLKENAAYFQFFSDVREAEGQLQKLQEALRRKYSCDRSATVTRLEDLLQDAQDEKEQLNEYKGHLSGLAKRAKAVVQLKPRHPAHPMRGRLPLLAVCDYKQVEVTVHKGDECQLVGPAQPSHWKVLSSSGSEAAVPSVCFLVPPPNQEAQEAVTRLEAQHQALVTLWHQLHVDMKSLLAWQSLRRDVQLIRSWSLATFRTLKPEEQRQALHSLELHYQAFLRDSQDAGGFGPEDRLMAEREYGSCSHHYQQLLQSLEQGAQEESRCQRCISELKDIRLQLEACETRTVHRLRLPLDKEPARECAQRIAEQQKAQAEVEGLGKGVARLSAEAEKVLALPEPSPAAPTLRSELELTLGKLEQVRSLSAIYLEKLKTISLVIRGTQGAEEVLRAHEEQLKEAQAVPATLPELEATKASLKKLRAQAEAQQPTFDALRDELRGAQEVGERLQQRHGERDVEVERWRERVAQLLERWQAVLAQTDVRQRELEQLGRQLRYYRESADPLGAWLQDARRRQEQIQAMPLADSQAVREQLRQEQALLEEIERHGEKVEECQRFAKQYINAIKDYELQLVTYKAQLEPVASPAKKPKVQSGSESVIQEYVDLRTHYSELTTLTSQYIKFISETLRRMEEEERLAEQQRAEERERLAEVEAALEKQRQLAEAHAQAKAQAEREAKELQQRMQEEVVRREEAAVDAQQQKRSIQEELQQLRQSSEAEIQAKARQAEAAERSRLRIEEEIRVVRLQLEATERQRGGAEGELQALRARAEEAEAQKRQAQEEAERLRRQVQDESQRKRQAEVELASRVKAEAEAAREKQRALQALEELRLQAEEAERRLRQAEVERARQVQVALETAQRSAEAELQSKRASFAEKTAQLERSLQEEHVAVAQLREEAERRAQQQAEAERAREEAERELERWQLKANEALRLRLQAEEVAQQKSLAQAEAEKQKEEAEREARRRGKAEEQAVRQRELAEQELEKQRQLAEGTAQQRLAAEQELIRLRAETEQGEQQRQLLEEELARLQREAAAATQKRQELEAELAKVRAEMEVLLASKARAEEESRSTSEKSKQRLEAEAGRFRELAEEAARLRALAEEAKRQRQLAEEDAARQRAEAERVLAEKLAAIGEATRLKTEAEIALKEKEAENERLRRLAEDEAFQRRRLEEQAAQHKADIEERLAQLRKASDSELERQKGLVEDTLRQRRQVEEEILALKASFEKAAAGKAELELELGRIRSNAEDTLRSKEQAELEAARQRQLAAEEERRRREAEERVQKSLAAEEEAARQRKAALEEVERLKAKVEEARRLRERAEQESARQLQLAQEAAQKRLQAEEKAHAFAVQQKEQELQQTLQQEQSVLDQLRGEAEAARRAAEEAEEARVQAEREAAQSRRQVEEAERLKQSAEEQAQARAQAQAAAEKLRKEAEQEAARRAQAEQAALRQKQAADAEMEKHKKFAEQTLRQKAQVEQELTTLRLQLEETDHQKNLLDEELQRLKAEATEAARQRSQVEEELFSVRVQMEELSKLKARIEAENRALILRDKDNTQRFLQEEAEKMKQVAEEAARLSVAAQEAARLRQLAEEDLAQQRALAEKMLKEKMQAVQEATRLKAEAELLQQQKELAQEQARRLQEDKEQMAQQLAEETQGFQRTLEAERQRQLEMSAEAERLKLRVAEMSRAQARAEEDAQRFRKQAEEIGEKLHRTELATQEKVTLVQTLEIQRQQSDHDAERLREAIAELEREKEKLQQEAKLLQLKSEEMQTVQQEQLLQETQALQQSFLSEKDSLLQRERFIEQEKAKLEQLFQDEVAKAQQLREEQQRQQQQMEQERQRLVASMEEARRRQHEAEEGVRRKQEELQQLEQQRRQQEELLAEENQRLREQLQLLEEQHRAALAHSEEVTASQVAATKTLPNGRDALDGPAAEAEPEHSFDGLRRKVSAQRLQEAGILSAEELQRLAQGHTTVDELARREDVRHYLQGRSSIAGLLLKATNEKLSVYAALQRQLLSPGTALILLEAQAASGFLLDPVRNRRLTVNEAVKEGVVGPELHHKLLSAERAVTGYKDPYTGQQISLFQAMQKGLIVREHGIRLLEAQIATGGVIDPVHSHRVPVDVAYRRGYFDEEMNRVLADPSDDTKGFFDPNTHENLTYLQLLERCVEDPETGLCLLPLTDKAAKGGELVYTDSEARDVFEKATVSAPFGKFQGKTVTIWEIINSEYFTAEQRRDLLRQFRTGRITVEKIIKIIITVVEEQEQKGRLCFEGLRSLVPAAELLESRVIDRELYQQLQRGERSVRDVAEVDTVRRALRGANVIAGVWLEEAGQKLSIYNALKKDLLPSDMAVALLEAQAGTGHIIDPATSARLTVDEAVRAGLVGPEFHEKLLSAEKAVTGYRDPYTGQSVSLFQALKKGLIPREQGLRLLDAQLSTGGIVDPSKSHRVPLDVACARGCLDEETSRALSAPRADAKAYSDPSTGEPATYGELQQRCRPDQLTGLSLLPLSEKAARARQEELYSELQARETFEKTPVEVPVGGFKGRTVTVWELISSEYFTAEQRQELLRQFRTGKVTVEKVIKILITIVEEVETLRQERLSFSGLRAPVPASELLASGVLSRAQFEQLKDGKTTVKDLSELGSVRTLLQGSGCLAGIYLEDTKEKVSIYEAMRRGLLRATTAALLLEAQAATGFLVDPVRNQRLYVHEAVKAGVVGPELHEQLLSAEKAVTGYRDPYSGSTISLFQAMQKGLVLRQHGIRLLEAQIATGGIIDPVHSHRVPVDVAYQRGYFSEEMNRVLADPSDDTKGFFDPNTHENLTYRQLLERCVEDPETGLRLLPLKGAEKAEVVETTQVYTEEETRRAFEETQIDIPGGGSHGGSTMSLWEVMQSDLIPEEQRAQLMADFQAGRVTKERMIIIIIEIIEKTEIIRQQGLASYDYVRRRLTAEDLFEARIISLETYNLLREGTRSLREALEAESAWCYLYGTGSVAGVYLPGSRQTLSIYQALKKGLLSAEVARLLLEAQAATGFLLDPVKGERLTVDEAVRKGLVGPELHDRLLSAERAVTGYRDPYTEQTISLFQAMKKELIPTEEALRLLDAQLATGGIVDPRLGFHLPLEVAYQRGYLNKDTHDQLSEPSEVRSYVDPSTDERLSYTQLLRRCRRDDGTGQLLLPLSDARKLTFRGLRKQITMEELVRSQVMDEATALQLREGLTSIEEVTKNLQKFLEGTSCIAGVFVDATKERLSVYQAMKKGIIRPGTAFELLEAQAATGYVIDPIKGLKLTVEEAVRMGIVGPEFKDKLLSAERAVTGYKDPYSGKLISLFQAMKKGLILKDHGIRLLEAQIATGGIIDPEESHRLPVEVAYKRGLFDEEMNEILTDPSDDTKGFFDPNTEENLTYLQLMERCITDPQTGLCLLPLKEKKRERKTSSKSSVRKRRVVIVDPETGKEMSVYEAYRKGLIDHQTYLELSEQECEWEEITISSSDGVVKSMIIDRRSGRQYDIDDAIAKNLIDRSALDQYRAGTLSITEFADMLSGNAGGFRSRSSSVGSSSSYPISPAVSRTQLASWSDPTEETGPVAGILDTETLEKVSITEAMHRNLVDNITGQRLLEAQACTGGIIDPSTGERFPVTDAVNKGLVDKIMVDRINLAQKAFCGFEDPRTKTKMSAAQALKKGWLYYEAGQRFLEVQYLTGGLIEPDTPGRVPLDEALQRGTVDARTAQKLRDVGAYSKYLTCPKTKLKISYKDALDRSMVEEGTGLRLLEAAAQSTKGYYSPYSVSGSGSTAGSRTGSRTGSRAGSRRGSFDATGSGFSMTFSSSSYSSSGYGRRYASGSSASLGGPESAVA

Experiments:
[1] = target: T1, Rap2B (endogenous) (human (endogenous in U2OS and LOVO or HCT116)) (UniProt P61225); assay: co-IP; endogenous Rap2B and endogenous plectin in U2OS and LOVO cells (legend: U2OS and HCT116); 0.1% NP-40 lysis buffer, primary antibody overnight at 4 °C, protein A/G magnetic beads
T1 sequence: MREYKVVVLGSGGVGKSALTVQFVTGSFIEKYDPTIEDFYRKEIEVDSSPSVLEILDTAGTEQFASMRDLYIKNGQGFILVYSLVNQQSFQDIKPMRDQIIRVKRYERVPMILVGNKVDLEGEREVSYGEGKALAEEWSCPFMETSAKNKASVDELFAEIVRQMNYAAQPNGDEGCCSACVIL

[2] = target: T2, Flag-tagged Rap2B (wild type), ectopically expressed (UniProt P61225); assay: co-IP; ectopically expressed Rap2B and endogenous plectin in HCT116 cells; 0.1% NP-40 lysis buffer, primary antibody overnight at 4 °C, protein A/G magnetic beads
T2 sequence: T1 sequence

[3] = target: T2, Flag-tagged Rap2B (wild type), ectopically expressed; assay: co-IP; ectopically expressed Rap2B or C180A mutant (adenovirus) and endogenous plectin in LOVO cells; 0.1% NP-40 lysis buffer, primary antibody overnight at 4 °C, protein A/G magnetic beads

Measured: binding

plectin (endogenous) (from UniProt Q15149 1-4684)
binds: all assays above
